{"source": "PubChem BioAssay AID1053208 (Peter MacCallum Cancer Centre, 2014)", "aim": "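Synthetic lethal interactions between gene loss and doxorubicin in osteosarcoma cells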 (primary screen)", "system": "mouse osteosarcoma cells, early-passage culture from an engineered mouse model of fibroblastic bone tumour", "reagent": "siRNA pool against mouse genes, 40 nM", "time to read-out": "about 120 h (48 h before drug, then 72 h with drug)", "challenge": "doxorubicin 100 nM for 72 h, roughly 30-40% inhibitory dose", "measured": "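Luminescent ATP signal taken as viability with or without 100 nM doxorubicin for 72 h; mean of two wells set against non-targeting siRNA and turned into robust z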", "scale": "viability z-score with doxorubicin: higher = more viable cells under doxorubicin; viability z-score without drug: higher = more viable cells with knock-down alone", "active means": "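a pool counts as active when its viability z-score with doxorubicin is -2 or below and its z-score without drug lies between -2 and 2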", "note": "This is one part, drawn at random, of about 17,000 reagents tested. Over the whole deposit, 788 (4.7%) were called active. 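Calls rest on z-score classes alone; an extra cut-off of viability at most 70% of control was not applied to them.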 A number with no mark means an inactive call. Some reagents were tested in more than one well and are listed for each. Further read-outs or replicates are left out here."}
{"Target gene":"Sdc1","combined z-score class":"no change with or without drug","viability z-score with doxorubicin":0.79,"viability z-score without drug":1.18}
{"Target gene":"Lamc3","combined z-score class":"high cell count without drug only","viability z-score with doxorubicin":1.12,"viability z-score without drug":2.19}
{"Target gene":"Guk1","combined z-score class":"no change with or without drug","viability z-score with doxorubicin":1.01,"viability z-score without drug":0.51}
{"Target gene":"Slc30a9","combined z-score class":"no change with or without drug","viability z-score with doxorubicin":-0.67,"viability z-score without drug":1.18}
{"Target gene":"Or1ak2","combined z-score class":"no change with or without drug","viability z-score with doxorubicin":-1.24,"viability z-score without drug":-0.34}
{"Target gene":"Snrpb","combined z-score class":"low cell count with doxorubicin only (active)","viability z-score with doxorubicin":-3.82,"viability z-score without drug":-0.67}
{"Target gene":"Ntrk3","combined z-score class":"no change with or without drug","viability z-score with doxorubicin":-0.11,"viability z-score without drug":0.84}
{"Target gene":"Tube1","combined z-score class":"no change with or without drug","viability z-score with doxorubicin":-1.8,"viability z-score without drug":-0.67}
{"Target gene":"Reg3d","combined z-score class":"no change with or without drug","viability z-score with doxorubicin":0.11,"viability z-score without drug":-0.51}
{"Target gene":"Krtcap3","combined z-score class":"no change with or without drug","viability z-score with doxorubicin":-1.57,"viability z-score without drug":-1.01}
{"Target gene":"Supv3l1","combined z-score class":"no change with or without drug","viability z-score with doxorubicin":-0.9,"viability z-score without drug":-0.51}
{"Target gene":"Ankrd34b","combined z-score class":"no change with or without drug","viability z-score with doxorubicin":1.24,"viability z-score without drug":1.01}
{"Target gene":"Pax2","combined z-score class":"no change with or without drug","viability z-score with doxorubicin":0.67,"viability z-score without drug":-0.51}
{"Target gene":"Bicd2","combined z-score class":"no change with or without drug","viability z-score with doxorubicin":1.12,"viability z-score without drug":0.84}
{"Target gene":"2310002L09Rik","combined z-score class":"no change with or without drug","viability z-score with doxorubicin":-1.01,"viability z-score without drug":0.34}
{"Target gene":"Carnmt1","combined z-score class":"no change with or without drug","viability z-score with doxorubicin":0.67,"viability z-score without drug":1.85}
{"Target gene":"Cyb5r2","combined z-score class":"no change with or without drug","viability z-score with doxorubicin":0.9,"viability z-score without drug":0.84}
{"Target gene":"Mlph","combined z-score class":"no change with or without drug","viability z-score with doxorubicin":-1.24,"viability z-score without drug":-1.52}
{"Target gene":"Asnsd1","combined z-score class":"no change with or without drug","viability z-score with doxorubicin":-0.67,"viability z-score without drug":1.18}
{"Target gene":"Tulp2","combined z-score class":"no change with or without drug","viability z-score with doxorubicin":0.11,"viability z-score without drug":-0.17}
{"Target gene":"Avpr1a","combined z-score class":"no change with or without drug","viability z-score with doxorubicin":-1.12,"viability z-score without drug":-0.84}
{"Target gene":"Avpr1a","combined z-score class":"no change with or without drug","viability z-score with doxorubicin":0.45,"viability z-score without drug":0.51}
{"Target gene":"Cacng6","combined z-score class":"no change with or without drug","viability z-score with doxorubicin":0.22,"viability z-score without drug":1.01}
{"Target gene":"Nsmce3","combined z-score class":"low cell count with doxorubicin only (active)","viability z-score with doxorubicin":-3.37,"viability z-score without drug":-1.52}
{"Target gene":"Aldh18a1","combined z-score class":"no change with or without drug","viability z-score with doxorubicin":0.9,"viability z-score without drug":1.01}
{"Target gene":"Pfkm","combined z-score class":"no change with or without drug","viability z-score with doxorubicin":0.45,"viability z-score without drug":-0.67}
{"Target gene":"B3gnt9","combined z-score class":"no change with or without drug","viability z-score with doxorubicin":-0.79,"viability z-score without drug":-0.17}
{"Target gene":"Coa7","combined z-score class":"low cell count with doxorubicin only (active)","viability z-score with doxorubicin":-2.7,"viability z-score without drug":1.35}

A run of entries of the results above, as a working copy:
{"Target gene":"Pax2","combined z-score class":"no change with or without drug","viability z-score with doxorubicin":0.67,"viability z-score without drug":-0.51}
{"Target gene":"Bicd2","combined z-score class":"no change with or without drug","viability z-score with doxorubicin":1.12,"viability z-score without drug":0.84}
{"Target gene":"2310002L09Rik","combined z-score class":"no change with or without drug","viability z-score with doxorubicin":-1.01,"viability z-score without drug":0.34}
